Patent publication US20030157162A1, “Liposome-encapsulated opioid analgesics” (priority 2002, published 2003)
Counter-ions that a name gives are not always drawn. For some assays here: At least one compound was matched to its structure with a doubt left. Some results were stated once for a whole list of compounds, not compound by compound.

Key:
[1] = test system: rats after intestinal surgery; experiment: Visceral pain model: intestinal resection/transection, behavioral pain scores and well-being; format: in vivo, rat; conditions: 0.3 mg/kg every 4 hours (Group S1) vs every 8 hours (Group S2)
[2] = Urine oxymorphone concentrations in visceral pain model (ELISA); format: in vivo, rat; conditions: visceral pain model rats

**Q.** What does the source list for `CN1CC[C@]23c4c5ccc(O)c4O[C@H]2C(=O)CC[C@@]3(O)[C@H]1C5` [standard oxymorphone, oxymorphone hydrochloride]?
**A.** pain index scores [1]: lower pain index scores; time detectable in urine after surgery [2]: up to 72 hours
